This passage reports binding results from PMC7696408.

No constants are given. Whether binding was seen depends on the method and setting. Binding seen in cells or lysates may run through a third protein. Here binding means that the protein was enriched with, or labelled near, the bait; the list need not be complete.

In one assay the target is FlagBirA*-KRAS4B (human) (UniProt P01116). The experiment in a line: proximity labelling; BioID: FlagBirA*-RAS bait in Flp-In T-REx 293 cells, 1 µg/mL tetracycline and 50 µM biotin for 24 h; modified RIPA lysis, Streptavidin Sepharose capture, trypsin, LC-MS/MS; hits at SAINT score ≥ 0.75; labelling radius ~10 nm.
A further assay deals with FlagBirA*-HRAS (human) (UniProt P01112). The assay is described as above.

B1: RASA2 (protein, UniProt Q15283 1-850)
chain: MAAAAPAAAAASSEAPAASATAEPEAGDQDSREVRVLQSLRGKICEAKNLLPYLGPHKMRDCFCTINLDQEEVYRTQVVEKSLSPFFSEEFYFEIPRTFQYLSFYVYDKNVLQRDLRIGKVAIKKEDLCNHSGKETWFSLQPVDSNSEVQGKVHLELKLNELITENGTVCQQLVVHIKACHGLPLINGQSCDPYATVSLVGPSRNDQKKTKVKKKTSNPQFNEIFYFEVTRSSSYTRKSQFQVEEEDIEKLEIRIDLWNNGNLVQDVFLGEIKVPVNVLRTDSSHQAWYLLQPRDNGNKSSKTDDLGSLRLNICYTEDYVLPSEYYGPLKTLLLKSPDVQPISASAAYILSEICRDKNDAVLPLVRLLLHHDKLVPFATAVAELDLKDTQDANTIFRGNSLATRCLDEMMKIVGGHYLKVTLKPILDEICDSSKSCEIDPIKLKEGDNVENNKENLRYYVDKLFNTIVKSSMSCPTVMCDIFYSLRQMATQRFPNDPHVQYSAVSSFVFLRFFAVAVVSPHTFHLRPHHPDAQTIRTLTLISKTIQTLGSWGSLSKSKSSFKETFMCEFFKMFQEEGYIIAVKKFLDEISSTETKESSGTSEPVHLKEGEMYKRAQGRTRIGKKNFKKRWFCLTSRELTYHKQPGSKDAIYTIPVKNILAVEKLEESSFNKKNMFQVIHTEKPLYVQANNCVEANEWIDVLCRVSRCNQNRLSFYHPSVYLNGNWLCCQETGENTLGCKPCTAGVPADIQIDIDEDRETERIYSLFTLSLLKLQKMEEACGTIAVYQGPQKEPDDYSNFVIEDSVTTFKTIQQIKSIIEKLDEPHEKYRKKRSSSAKYGSKENPIVGKAS
With B1, in the assay with FlagBirA*-KRAS4B (human), the binding result is recorded as “binds”.

B2: TIMM23 (protein, UniProt O14925 1-209)
chain: MEGGGGSGNKTTGGLAGFFGAGGAGYSHADLAGVPLTGMNPLSPYLNVDPRYLVQDTDEFILPTGANKTRGRFELAFFTIGGCCMTGAAFGAMNGLRLGLKETQNMAWSKPRNVQILNMVTRQGALWANTLGSLALLYSAFGVIIEKTRGAEDDLNTVAAGTMTGMLYKCTGGLRGIARGGLTGLTLTSLYALYNNWEHMKGSLLQQSL
B2: the binding entry with FlagBirA*-HRAS (human) was “binds”.

B3: TMED10 (protein, UniProt P49755 32-219)
chain: ISFHLPINSRKCLREEIHKDLLVTGAYEISDQSGGAGGLRSHLKITDSAGHILYSKEDATKGKFAFTTEDYDMFEVCFESKGTGRIPDQLVILDMKHGVEAKNYEEIAKVEKLKPLEVELRRLEDLSESIVNDFAYMKKREEEMRDTNESTNTRVLYFSIFSMFCLIGLATWQVFYLRRFFKAKKLIE
As for B3, the binding result in the assay with FlagBirA*-HRAS (human) is recorded as “binds”.

B4: MOSPD2 (protein, UniProt Q8NHP6 1-518)
chain: MAENHAQNKAKLISETRRRFEAEYVTDKSDKYDARDVERLQQDDNWVESYLSWRHNIVDETLKMLDESFQWRKEISVNDLNESSIPRWLLEIGVIYLHGYDKEGNKLFWIRVKYHVKDQKTILDKKKLIAFWLERYAKRENGKPVTVMFDLSETGINSIDMDFVRFIINCFKVYYPKYLSKIVIFDMPWLMNAAFKIVKTWLGPEAVSLLKFTSKNEVQDYVSVEYLPPHMGGTDPFKYSYPPLVDDDFQTPLCENGPITSEDETSSKEDIESDGKETLETISNEEQTPLLKKINPTESTSKAEENEKVDSKVKAFKKPLSVFKGPLLHISPAEELYFGSTESGEKKTLIVLTNVTKNIVAFKVRTTAPEKYRVKPSNSSCDPGASVDIVVSPHGGLTVSAQDRFLIMAAEMEQSSGTGPAELTQFWKEVPRNKVMEHRLRCHTVESSKPNTLTLKDNAFNMSDKTSEDICLQLSRLLESNRKLEDQVQRCIWFQQLLLSLTMLLLAFVTSFFYLLYS
For B4, the binding entry with FlagBirA*-KRAS4B (human) was “binds”.

B5: VAT1 (protein, UniProt Q99536 1-393)
chain: MSDEREVAEAATGEDASSPPPKTEAASDPQHPAASEGAAAAAASPPLLRCLVLTGFGGYDKVKLQSRPAAPPAPGPGQLTLRLRACGLNFADLMARQGLYDRLPPLPVTPGMEGAGVVIAVGEGVSDRKAGDRVMVLNRSGMWQEEVTVPSVQTFLIPEAMTFEEAAALLVNYITAYMVLFDFGNLQPGHSVLVHMAAGGVGMAAVQLCRTVENVTVFGTASASKHEALKENGVTHPIDYHTTDYVDEIKKISPKGVDIVMDPLGGSDTAKGYNLLKPMGKVVTYGMANLLTGPKRNLMALARTWWNQFSVTALQLLQANRAVCGFHLGYLDGEVELVSGVVARLLALYNQGHIKPHIDSVWPFEKVADAMKQMQEKKNVGKVLLVPGPEKEN
As for B5, the binding entry with FlagBirA*-HRAS (human) is “binds”.

B6: YWHAH (protein, UniProt Q04917 1-246)
chain: MGDREQLLQRARLAEQAERYDDMASAMKAVTELNEPLSNEDRNLLSVAYKNVVGARRSSWRVISSIEQKTMADGNEKKLEKVKAYREKIEKELETVCNDVLSLLDKFLIKNCNDFQYESKVFYLKMKGDYYRYLAEVASGEKKNSVVEASEAAYKEAFEISKEQMQPTHPIRLGLALNFSVFYYEIQNAPEQACLLAKQAFDDAIAELDTLNEDSYKDSTLIMQLLRDNLTLWTSDQQDEEAGEGN
As to B6, the binding result with FlagBirA*-HRAS (human) is given as “binds”.

B7: VPS33A (protein, UniProt Q96AX1 1-596)
chain: MAAHLSYGRVNLNVLREAVRRELREFLDKCAGSKAIVWDEYLTGPFGLIAQYSLLKEHEVEKMFTLKGNRLPAADVKNIIFFVRPRLELMDIIAENVLSEDRRGPTRDFHILFVPRRSLLCEQRLKDLGVLGSFIHREEYSLDLIPFDGDLLSMESEGAFKECYLEGDQTSLYHAAKGLMTLQALYGTIPQIFGKGECARQVANMMIRMKREFTGSQNSIFPVFDNLLLLDRNVDLLTPLATQLTYEGLIDEIYGIQNSYVKLPPEKFAPKKQGDGGKDLPTEAKKLQLNSAEELYAEIRDKNFNAVGSVLSKKAKIISAAFEERHNAKTVGEIKQFVSQLPHMQAARGSLANHTSIAELIKDVTTSEDFFDKLTVEQEFMSGIDTDKVNNYIEDCIAQKHSLIKVLRLVCLQSVCNSGLKQKVLDYYKREILQTYGYEHILTLHNLEKAGLLKPQTGGRNNYPTIRKTLRLWMDDVNEQNPTDISYVYSGYAPLSVRLAQLLSRPGWRSIEEVLRILPGPHFEERQPLPTGLQKKRQPGENRVTLIFFLGGVTFAEIAALRFLSQLEDGGTEYVIATTKLMNGTSWIEALMEKPF
On to B7, for which the binding entry with FlagBirA*-HRAS (human) is reported as “binds”.

B8: VAMP4 (protein, UniProt O75379 1-141)
chain: MPPKFKRHLNDDDVTGSVKSERRNLLEDDSDEEEDFFLRGPSGPRFGPRNDKIKHVQNQVDEVIDVMQENITKVIERGERLDELQDKSESLSDNATAFSNRSKQLRRQMWWRGCKIKAIMALVAAILLLVIIILIVMKYRT
Take B8: the binding result with FlagBirA*-HRAS (human) is “binds”.

B9: YKT6 (protein, UniProt O15498 1-198)
chain: MKLYSLSVLYKGEAKVVLLKAAYDVSSFSFFQRSSVQEFMTFTSQLIVERSSKGTRASVKEQDYLCHVYVRNDSLAGVVIADNEYPSRVAFTLLEKVLDEFSKQVDRIDWPVGSPATIHYPALDGHLSRYQNPREADPMTKVQAELDETKIILHNTMESLLERGEKLDDLVSKSEVLGTQSKAFYKTARKQNSCCAIM
Consider B9, for which, in the assay with FlagBirA*-HRAS (human), the binding entry is given as “binds”.
